Reference: PMC5855860
No constants are given. Whether binding was seen depends on the method and setting. For some assays here: In cells and extracts the contact can be indirect. Sequences can lack the tags named with a protein. One block for each binder: values may come before it.

Legend:
[1] = molecular target: T1, RTNLB6, yeast two-hybrid fusion (Arabidopsis thaliana), Q6DBN4; test: two-hybrid; LexA bait fusions (pSST91) and GAL4 activation domain prey fusions (pGAD424) in yeast CTY10-5d, 30 °C; colony colour on SD medium with X-Gal lacking leucine and tryptophan; the same strains also in liquid ONPG β-galactosidase assays; conditions: remark: other sources report otherwise
T1 chain: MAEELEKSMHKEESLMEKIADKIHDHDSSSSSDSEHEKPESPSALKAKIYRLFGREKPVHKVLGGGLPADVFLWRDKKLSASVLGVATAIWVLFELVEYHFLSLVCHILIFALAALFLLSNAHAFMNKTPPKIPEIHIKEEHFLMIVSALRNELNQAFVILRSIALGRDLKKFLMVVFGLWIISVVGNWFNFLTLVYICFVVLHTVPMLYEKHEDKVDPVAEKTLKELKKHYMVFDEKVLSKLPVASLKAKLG

[2] = molecular target: T2, reticulon-like protein B4 (RTNLB4), yeast two-hybrid fusion (Arabidopsis thaliana) (UniProt Q9FFS0); test: as above
T2 sequence: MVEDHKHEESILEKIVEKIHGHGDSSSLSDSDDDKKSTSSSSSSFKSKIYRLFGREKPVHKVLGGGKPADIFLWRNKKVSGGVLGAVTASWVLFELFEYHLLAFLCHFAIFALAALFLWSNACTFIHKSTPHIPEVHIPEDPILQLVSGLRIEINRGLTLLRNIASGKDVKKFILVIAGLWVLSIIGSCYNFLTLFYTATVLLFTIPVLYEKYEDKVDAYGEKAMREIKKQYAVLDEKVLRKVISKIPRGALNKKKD

[3] = molecular target: T3, RTNLB6, yeast two-hybrid fusion (Arabidopsis thaliana) (UniProt Q6DBN4); test: as above
T3 sequence: T1 chain

[4] = molecular target: T4, reticulon-like protein B1 (RTNLB1), yeast two-hybrid fusion (Arabidopsis thaliana) (UniProt Q9SUR3); test: as above
T4 sequence: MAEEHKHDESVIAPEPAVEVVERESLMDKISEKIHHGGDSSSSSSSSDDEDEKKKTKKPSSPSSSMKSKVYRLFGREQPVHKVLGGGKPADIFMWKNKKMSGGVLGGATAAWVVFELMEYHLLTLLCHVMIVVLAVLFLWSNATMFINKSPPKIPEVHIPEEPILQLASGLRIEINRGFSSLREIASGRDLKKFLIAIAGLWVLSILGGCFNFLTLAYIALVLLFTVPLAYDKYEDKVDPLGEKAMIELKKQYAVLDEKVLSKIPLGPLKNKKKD

[5] = molecular target: T5, RTNLB5, yeast two-hybrid fusion (Arabidopsis thaliana) (UniProt O82352); test: as above
T5 sequence: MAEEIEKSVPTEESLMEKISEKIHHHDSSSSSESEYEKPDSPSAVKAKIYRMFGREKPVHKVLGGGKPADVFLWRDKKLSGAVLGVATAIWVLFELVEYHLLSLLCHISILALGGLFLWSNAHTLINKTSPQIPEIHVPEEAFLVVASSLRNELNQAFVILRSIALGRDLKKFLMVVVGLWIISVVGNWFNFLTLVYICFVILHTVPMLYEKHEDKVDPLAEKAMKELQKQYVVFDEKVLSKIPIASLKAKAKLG

[6] = molecular target: T6, reticulon-like protein B2 (RTNLB2), yeast two-hybrid fusion (Arabidopsis thaliana) (UniProt Q9SUT9); test: as above
T6 sequence: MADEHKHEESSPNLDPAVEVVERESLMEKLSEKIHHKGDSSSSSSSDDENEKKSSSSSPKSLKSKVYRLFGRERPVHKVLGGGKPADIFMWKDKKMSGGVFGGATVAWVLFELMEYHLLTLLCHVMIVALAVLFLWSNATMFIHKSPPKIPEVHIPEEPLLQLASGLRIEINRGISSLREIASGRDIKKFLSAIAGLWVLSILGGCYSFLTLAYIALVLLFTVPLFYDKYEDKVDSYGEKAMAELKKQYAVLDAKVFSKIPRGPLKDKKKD

[7] = molecular target: T7, RETICULON-LIKE3 (RTNLB3), yeast two-hybrid fusion (Arabidopsis thaliana) (UniProt Q9SH59); test: as above
T7 sequence: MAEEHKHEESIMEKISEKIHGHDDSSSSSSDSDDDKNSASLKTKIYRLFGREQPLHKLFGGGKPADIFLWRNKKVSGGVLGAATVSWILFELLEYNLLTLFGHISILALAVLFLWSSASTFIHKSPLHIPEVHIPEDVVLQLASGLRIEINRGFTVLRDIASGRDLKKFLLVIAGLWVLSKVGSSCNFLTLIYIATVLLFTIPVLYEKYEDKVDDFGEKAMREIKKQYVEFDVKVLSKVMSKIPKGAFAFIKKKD

[8] = molecular target: T8, RTNLB7, yeast two-hybrid fusion (Arabidopsis thaliana) (UniProt Q9M145); test: as above
T8 sequence: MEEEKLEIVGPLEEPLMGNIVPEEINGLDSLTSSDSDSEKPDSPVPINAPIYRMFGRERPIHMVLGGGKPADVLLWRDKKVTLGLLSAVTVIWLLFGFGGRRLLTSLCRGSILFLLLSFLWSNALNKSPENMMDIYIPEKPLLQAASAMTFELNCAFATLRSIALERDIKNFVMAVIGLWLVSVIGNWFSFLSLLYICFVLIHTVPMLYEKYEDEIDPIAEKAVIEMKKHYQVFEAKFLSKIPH

[9] = molecular target: T9, RTNLB8, yeast two-hybrid fusion (Arabidopsis thaliana) (UniProt Q9SS37); test: as above
T9 sequence: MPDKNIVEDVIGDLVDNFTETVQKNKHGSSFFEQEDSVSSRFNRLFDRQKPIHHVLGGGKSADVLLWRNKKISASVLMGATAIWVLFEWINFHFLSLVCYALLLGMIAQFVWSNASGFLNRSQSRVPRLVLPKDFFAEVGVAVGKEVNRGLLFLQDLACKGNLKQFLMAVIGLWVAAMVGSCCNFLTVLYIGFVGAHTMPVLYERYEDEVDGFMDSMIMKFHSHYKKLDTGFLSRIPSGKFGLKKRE

[10] = molecular target: T10, GST-RTNLB8 fusion protein (Arabidopsis thaliana) (UniProt Q9SS37); test: pull-down; GST fusion or GST only on glutathione-sepharose beads, incubated with T7-tagged proteins from E. coli; bound proteins eluted with glutathione; blot with anti-T7 tag and anti-GST antibodies
T10 sequence: T9 sequence

[11] = molecular target: T11, RETICULON-LIKE3 (RTNLB3), yeast two-hybrid fusion (Arabidopsis thaliana), Q9SH59; test: two-hybrid; LexA bait fusions (pSST91) and GAL4 activation domain prey fusions (pGAD424) in yeast CTY10-5d, 30 °C; colony colour on SD medium with X-Gal lacking leucine and tryptophan; the same strains also in liquid ONPG β-galactosidase assays; conditions: remark: other sources report otherwise
T11 chain: T7 sequence

B1: RETICULON-LIKE3 (RTNLB3), yeast two-hybrid fusion, Q9SH59 1-255 (protein)
chain: T7 sequence
binding [1]: no binding

B2: RTNLB5, yeast two-hybrid fusion (protein, UniProt O82352 1-255)
chain: T5 sequence
binding [2]: no binding | binding [3]: no binding | binding [4]: no binding | binding [5]: no binding | binding [6]: no binding | binding [7]: no binding | binding [8]: no binding | binding [9]: no binding

B3: T7-tagged-RTNLB8 protein (protein, UniProt Q9SS37 1-247)
chain: T9 sequence
binding [10]: no binding

Other lines, results leading:

binding [1]: no binding | binding [11]: no binding
B4: RTNLB6, yeast two-hybrid fusion, Q6DBN4 1-253 (protein)
chain: T1 chain

binding [2]: no binding | binding [3]: no binding | binding [4]: no binding | binding [5]: no binding | binding [6]: no binding | binding [7]: no binding | binding [8]: no binding | binding [9]: no binding
B5: RTNLB7, yeast two-hybrid fusion (protein, UniProt Q9M145 1-244)
chain: T8 sequence
